At least one structure is not confirmed: it was looked up by name or label, or the drawing left a doubt.
Tested on: Hsp90
Assay: Hsp90 acetylation: α-Hsp90 immunoprecipitation, α-AcK immunoblot, in A549 cells
Format: cell-based
Settings: hormone free media 24 hours
Method: Immunoprecipitation and immunostaining. Cells were lysed as described previously (Hubbert et al., 2002). Hsp90 antibody was pre-incubated with rabbit-anti-mouse (Jackson Labs) and Protein-A Sepharose beads (Roche) for 10 minutes. The bead/antibody mix was added to 750 μg of whole cell lysate and incubated at 4° C. for 3 hours. Samples were washed 4 times with 150 mM NETN(Hubbert et al., 2002) and subjected to SDS-PAGE and immunoblotting analysis. Immunolocalization of GR and HDAC6 was described previously (Hubbert et al., 2002).
HDAC6 regulates Hsp90 acetylation. To investigate the possibility that HDAC6 functions as an Hsp90 deacetylase, a determination was made regarding whether over-expression of HDAC6 can lead to Hsp90 deacetylation in vivo. […] A basal level of Hsp90 acetylation could be detected in control A549 cell lines. […] The reactions were then subjected to SDS-PAGE and immunoblotted with the indicated antibodies).
Hsp90 hyperacetylation is induced by dexamethasone and correlated with the dissociation of functional […]. Experiments were conducted to determine whether Hsp90 acetylation is regulated by dexamethasone. Control and HDAC6 knockdown A549 cells were cultured in hormone free media for 24 hours, and then stimulated with dexamethasone for the indicated time in hours. […]

C[C@@H]1C[C@H]2[C@@H]3CCC4=CC(=O)C=C[C@]4(C)[C@@]3(F)[C@@H](O)C[C@]2(C)[C@@]1(O)C(=O)CO [dexamethasone]
effect of dexamethasone on Hsp90 acetylation, HDAC6 knockdown cells (HDAC6 knockdown A549 cells): an increase of acetylation
effect of dexamethasone on Hsp90 acetylation, control cells (control A549 cells): did not have a marked effect
